Results reported in patent US20050271739A1, “Methods and compositions for accelerating alcohol metabolism” (priority 2004, published 2005).

Test system: alcohol dehydrogenase
Experiment: Effect of hormonal compounds on enzyme activity of alcohol dehydrogenase
Format: biochemical
Design: concentration or dose not given beside the values
Conditions: Control = 100.0

`CC/C(=C(/CC)c1ccc(O)cc1)c1ccc(O)cc1` [Diethylstilbestrol] was tested. Which “Relative activity (%)” value did it give?
Its value is 259%.
